Data on five compounds can be found in PubChem BioAssay AID224 (DTP/NCI, 2004).

The list does not hold the whole screen: it is rich in T/C values a quarter to a half above the control, in often repeated tests (any T/C) and in doses without a T/C. Further doses and runs are listed elsewhere. T/C gives the treated animals as a percentage of the vehicle group. Some doses have a count of surviving animals in place of a T/C: the source holds a T/C of zero for them, seemingly a mark for toxic or unscored doses. Some survivor counts are full or nearly so, which does not show that the dose was tolerated: survival well below the control is almost never listed, so the zero probably covers shortened survival too. Counts of survivors are from the toxicity check (mostly the fifth day) where no day follows; animals may have died later. Schedules are NCI's codes, taken here to give the interval after Q, in days (D) or hours (H), and the number of doses after X. Some schedule codes hold Z or #, which are not explained here. For survival time, this PubChem deposit counts one and a half times the control or more as active, and values a quarter to a half above the control carry no call in these data; other NCI protocols may use other cut-offs.

In the experiment the test system is P335 leukemia ip, BDF1 mice, survival T/C %. The experiment is described as follows: NCI In Vivo Anticancer Drug Screen. Data for tumor model P335 Leukemia (intraperitoneal) in B6D2F1 (BDF1) mice. The note with it: T/C endpoint: mean survival time, schedule: Q01DX Z (ip), higher T/C = longer survival. The protocol:
The antitumor activity of compounds was measured in mice bearing transplantable tumors. Survival or tumor size were measured and the results are expressed as the measurement made in the treated group (T) divided by the measurement made in the vehicle treated control group (C). The tumor model used in this assay is P335 Leukemia (intraperitoneal) in B6D2F1 (BDF1) mice

In the case of `O=c1cn[nH]c(=O)[nH]1`, where the note is “dose: 1500.0 mg/kg/injection, vehicle: carboxymethylcellulose (CMC)”, the survivor count is recorded as 6 of 6.

As for `S=c1nc[nH]c2nc[nH]c12`, the T/C (dose: 150.0 mg/kg/injection, vehicle: other) was 137 % of control.

Consider `CCCCNc1ncnc2c1cnn2C`, for which the survivor count reads like this: (dose: 125.0 mg/kg/injection, vehicle: carboxymethylcellulose (CMC)) 1 of 6; (dose: 250.0 mg/kg/injection, vehicle: carboxymethylcellulose (CMC)) 0 of 6.

As to `C[C@@H]1C[C@H]2CC[C@H](O2)[C@H](C)C(=O)O[C@@H](C)C[C@@H]2CC[C@@H](O2)[C@@H](C)C(=O)O[C@H](C)C[C@H]2CC[C@H](O2)[C@H](C)C(=O)O[C@@H](C)C[C@@H]2CC[C@@H](O2)[C@@H](C)C(=O)O1`, for the setting “dose: 200.0 mg/kg/injection, vehicle: carboxymethylcellulose (CMC)”, the survivor count is listed as 6 of 6.

Consider `Nc1nc(N)c2nc(CNc3ccc(C(=O)NC(CCC(=O)O)C(=O)O)cc3)cnc2n1` (stereo not given), for which the T/C is 125 % of control (dose: 31.0 micrograms/kg/injection, vehicle: alkali diluted with saline); 132 % of control (dose: 63.0 micrograms/kg/injection, vehicle: alkali diluted with saline); 147 % of control (dose: 125.0 micrograms/kg/injection, vehicle: alkali diluted with saline). Also, the survivor count is given as 3 of 6 (dose: 250.0 micrograms/kg/injection, vehicle: alkali diluted with saline) and 4 of 6 (dose: 500.0 micrograms/kg/injection, vehicle: alkali diluted with saline).
